The record followed here is paper PMC7819943, “Rice protein-binding microarrays: a tool to detect cis-acting elements near promoter regions in rice”.

By UniProt entry, the sequences of proteins in these tests, tags left out.
UniProt Q0JBA9, entry or part of it: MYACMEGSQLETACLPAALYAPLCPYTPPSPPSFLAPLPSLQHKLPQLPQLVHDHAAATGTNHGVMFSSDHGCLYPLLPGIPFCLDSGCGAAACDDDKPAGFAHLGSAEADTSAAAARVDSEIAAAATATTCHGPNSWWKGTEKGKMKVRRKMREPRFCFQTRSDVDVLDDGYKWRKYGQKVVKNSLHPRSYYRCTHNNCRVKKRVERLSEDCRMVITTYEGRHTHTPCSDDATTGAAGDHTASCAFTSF

Some of the results follow.

The assay has as its target OsWRKY34 (Oryza sativa, UniProt Q0JBA9 1-250). Put plainly: protein-binding microarray (RPBM); PBS, 2% BSA, 51.3 ng/ul salmon testes DNA, 50 uM zinc acetate, 200 nM TF, 25 C, 1 h; high values mean tight binding. Conditions: protein: recombinant; tags: N-terminal polyhistidine and DsRed monomer fusion (pET32a); label: CyDye5-dUTP incorporated in the synthesized complementary strand; 3' TTTTT single-stranded linker to array surface; dsDNA, one strand shown. Summed up: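 The binding signal is fluorescence intensity per feature, in arbitrary units, read on an Axon 4000B scanner. Polyhistidine- and DsRed-tagged transcription factors (N-terminal fusions) from E. coli BL21-CodonPlus were purified on Ni–NTA and applied at 200 nM for 1 h at 25 °C to a double-stranded, BSA-blocked custom Agilent array in buffer with 50 µM zinc acetate.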
Take “AAATCATCCGGATTAATCTGTACCGTCCATCCGCGCGCAACGGAGTCACCTAGTGCAG”: the binding signal was 11300 fluorescence intensity (a.u.). With “TGTTACCAAACGGATTTTGCCTAATTTCATCCCGCGACTACGGAGTCACCTAGTGCAG”, the binding signal is 8770 fluorescence intensity (a.u.). For “TTCTCTATCATAATGGCAGCACTACCATTACAAGCACTGACGGAGTCACCTAGTGCAG”, the binding signal is 8120 fluorescence intensity (a.u.). For “ATATATATATATATATATATGGCAACGTAATCCTTCTGTTCGGAGTCACCTAGTGCAG”, the binding signal is 9540 fluorescence intensity (a.u.). As for “GCCTCGAGCGCTATCCCCGCCACCGCTTGCCGCGTTATTCCGGAGTCACCTAGTGCAG”, the binding signal was 14700 fluorescence intensity (a.u.). Consider “ACTTTTACCTGGGTTGCCAGTGTTATATATGCTTTGTTGACGGAGTCACCTAGTGCAG”, for which the binding signal is 10800 fluorescence intensity (a.u.). Regarding “GCATTACCAGATCACGCCGGCCAAGCCAGCCACGGTCACCCGGAGTCACCTAGTGCAG”, the binding signal is 9220 fluorescence intensity (a.u.). For “ATGGAAGTATGGGTTATTCGTGCCATGCTGTTCTTTCGAACGGAGTCACCTAGTGCAG” the value was 8390 fluorescence intensity (a.u.); for “GCCGTCTTTGCTTGATAGTCTTCGCCATGGGGACTTTGTCCGGAGTCACCTAGTGCAG”, 8210 fluorescence intensity (a.u.).

In the case of “CTTTATCGATGGATGCTTTGGGCTCCACCATTATTTTTTTCGGAGTCACCTAGTGCAG”, the binding signal is 9140 fluorescence intensity (a.u.). With “GATGCTCTTTCTATATGGTAATATATTCCACTCTAATCTGCGGAGTCACCTAGTGCAG”, the binding signal was 10300 fluorescence intensity (a.u.). On to “AGGCCGCGCTCCTCACCCGCCACGCGCTCCACTCCAACTGCGGAGTCACCTAGTGCAG”, for which the binding signal is 9340 fluorescence intensity (a.u.). Then “ACACGTGCCTCGTCCCACCTGTCCGCGTCACCCGTCTCTCCGGAGTCACCTAGTGCAG”, with 15400 fluorescence intensity (a.u.); and “TATTCACGTTCAACGTTTGATCGTTCGTCTTATTTGAAATCGGAGTCACCTAGTGCAG”, with 10100 fluorescence intensity (a.u.); and “TCCTCTTCTTCTTCTTCTTCTTCTCGTGGGTGCAAGAAGCCGGAGTCACCTAGTGCAG”, with 8380 fluorescence intensity (a.u.).

Turning to “CACGGCCTCCACTTTCTGCTTCGCCTCATCCAGTCCGCTTCGGAGTCACCTAGTGCAG”, the binding signal is 11000 fluorescence intensity (a.u.). Then “TTCAGGGACATGTTGTATCTGGTTTTGGGGTTCAAGGATGCGGAGTCACCTAGTGCAG”, with 9220 fluorescence intensity (a.u.). For the sequence “GTGCTTTTTCTTGCTTTTTCTCGTGATGTTGGAGTGGTGTCGGAGTCACCTAGTGCAG”, the binding signal was 13000 fluorescence intensity (a.u.). Consider “GCTTATTTTGGTGGTACAGATGCAGTTTCATTTATTAAAACGGAGTCACCTAGTGCAG”, for which the binding signal was 12900 fluorescence intensity (a.u.). Turning to “CTGGCCGTCATCTTCTTCTTCTCCGATCTCCTCCTCCTCCCGGAGTCACCTAGTGCAG”, the binding signal was 9220 fluorescence intensity (a.u.).

For the sequence “GCTCACTTCCCTGTGGCTATGTGTTGCTGACTGTAAATATCGGAGTCACCTAGTGCAG”, the binding signal was 11100 fluorescence intensity (a.u.). Consider “ATCATCACTCCATTGCCGCTGTATTTGTTGTCATCGTTTTCGGAGTCACCTAGTGCAG”, for which the binding signal is 11200 fluorescence intensity (a.u.). As to “GACTTACCTAACATGCATTTGATTTCTCCTTAATTCATTACGGAGTCACCTAGTGCAG”, the binding signal is 9210 fluorescence intensity (a.u.). For “ATAGTAAAATTATTTTTTGGTCATGTTCTTTTTATAGGGGCGGAGTCACCTAGTGCAG” the value was 12600 fluorescence intensity (a.u.); for “GGATTTGGATTTGCTTGGTAACCCAGCTGAACTCTCTGAACGGAGTCACCTAGTGCAG”, 8390 fluorescence intensity (a.u.); for “TCAGGATCCTCCTTTAGTTTTCTATCATCATCCTCTATTCCGGAGTCACCTAGTGCAG”, 9010 fluorescence intensity (a.u.). In the case of “CTCTCACCATGCAAGATTTCCTTAGATTTGAGTTGAGTCACGGAGTCACCTAGTGCAG”, the binding signal is 9150 fluorescence intensity (a.u.). On to “GCCGTGGTGGTGTGGGGATCGTGTTGTGGCGGCGGATTGGCGGAGTCACCTAGTGCAG”, for which the binding signal was 8690 fluorescence intensity (a.u.). In the case of “TATTCTCGATCCATTTATCTCCTATCTGTTACTTTGGTATCGGAGTCACCTAGTGCAG”, the binding signal is 10700 fluorescence intensity (a.u.). For the sequence “CTCCTCGTCTCTCGCCTTCGCCACCTTCGAATCGAAACTACGGAGTCACCTAGTGCAG”, the binding signal is 10500 fluorescence intensity (a.u.). Then “GGTTATTTATTTTTATTGGTTTCCCCATTACTGTTGACAGCGGAGTCACCTAGTGCAG”, with 8360 fluorescence intensity (a.u.). For “CTCTCTTTACATTCTCCACATGTAGTACTAGCTAGCTAACCGGAGTCACCTAGTGCAG”, the binding signal is 8380 fluorescence intensity (a.u.). For the sequence “ACTCTTCCTGCCCGCCGCCGCCGCCGCGACCTCGCCGTCGCGGAGTCACCTAGTGCAG”, the binding signal is 9840 fluorescence intensity (a.u.). For “CCCCGTAGTCGGCATCCGTGCGGCCTCAGCACACCTCCTCCGGAGTCACCTAGTGCAG” the value was 8210 fluorescence intensity (a.u.). On to “ATATTTTAGATGCTAACTGTTAATCAAGTTCTTTTATACACGGAGTCACCTAGTGCAG”, for which the binding signal was 9170 fluorescence intensity (a.u.). Consider “GTGGAGACGTGGGACGTCGCGCGGGTATCGGGTGGGGATGCGGAGTCACCTAGTGCAG”, for which the binding signal was 8580 fluorescence intensity (a.u.).

On to “TCCTCTTCATGCGATGCGAGCTCTCCTCTCGTTTCCTCTCCGGAGTCACCTAGTGCAG”, for which the binding signal is 10000 fluorescence intensity (a.u.). Regarding “CCCGTGAACACATCCTCCGCCGCCGCCGCCGCCGATCTCCCGGAGTCACCTAGTGCAG”, the binding signal is 9360 fluorescence intensity (a.u.). Turning to “GGCTCCTCGCGTAGTGCCCTTGCAGCTTCACCTCATCCACCGGAGTCACCTAGTGCAG”, the binding signal is 8310 fluorescence intensity (a.u.). Turning to “AGTGTATCTTGTCAGTATTAATTCCAGTCAGCCATGAATTCGGAGTCACCTAGTGCAG”, the binding signal was 8720 fluorescence intensity (a.u.).

On to “CTCGCCGATAAAAAGGACACCGAGGCTCGGTGAGGTTGACCGGAGTCACCTAGTGCAG”, for which the binding signal is 8590 fluorescence intensity (a.u.).

Take “TGGTTGTCTGGTCATTCGTGCTTTCCTTTTTCCTTTGTCTCGGAGTCACCTAGTGCAG”: the binding signal is 11900 fluorescence intensity (a.u.).
